PMC3208602
No constants are given. Whether binding was seen depends on the method and setting. Binding seen in cells or lysates may run through a third protein. Some entries that bind do so weakly or less than the wild type.

Target: sortilin (human (endogenous in SUDHL4 and SUDHL6)), Q99523
Assay: co-IP; sortilin immunoprecipitated from cell lysates, protein A/G-agarose beads, blotted with anti-p75^NTR; SUDHL4 with 10% FCS or after 72 h serum deprivation; SUDHL4 and SUDHL6 with or without rituximab 20 µg/ml
Details: remark: other sources report otherwise

B1: p75 NT receptor (p75^NTR), mature 75 kDa form, P08138 29-427 (receptor)
chain: KEACPTGLYTHSGECCKACNLGEGVAQPCGANQTVCEPCLDSVTFSDVVSATEPCKPCTECVGLQSMSAPCVEADDAVCRCAYGYYQDETTGRCEACRVCEAGSGLVFSCQDKQNTVCEECPDGTYSDEANHVDPCLPCTVCEDTERQLRECTRWADAECEEIPGRWITRSTPPEGSDSTAPSTQEPEAPPEQDLIASTVAGVVTTVMGSSQPVVTRGTTDNLIPVYCSILAAVVVGLVAYIAFKRWNSCKQNKQGANSRPVNQTPPPEGEKLHSDSGISVDSQSLHDQQPHTQTASGQALKGDGGLYSSLPPAKREEVEKLLNGSAGDTWRHLAGELGYQPEHIDSFTHEACPVRALLASWATQDSATLDALLAALRRIQRADLVESLCSESTATSPV
Q: How did the binding turn out when B1 was run?
A: binds
